Experimental data: PubChem BioAssay AID1259254 (NCATS, 2017)
Shown is an unselected part of about 59,000 reagents. About 1,550 of them (2.6%) were called active. 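G2 share is only a proxy for re-replication; each gene was hit by three separate siRNAs, and active genes were retested.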 Not all columns of the deposit are shown. Not stated in the record: the amount of reagent.

- Purpose: 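Genome-wide screen for genes that prevent DNA re-replication in cancer cells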 (primary screen)
- Cell system: human HCT116 colorectal cancer cells
- Reagent: single siRNA against human genes
- Duration: 3 days
- Detection: 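Imaged Hoechst DNA stain sorts each cell into a cycle phase by DNA amount; per plate, G2 fraction set to 0% for non-targeting and 100% for GMNN siRNA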
- Direction: G2 robust z-score and G2 cells, % of GMNN control: higher = more G2 cells, more excess DNA replication
- Active means: 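An siRNA counts as active if its G2 robust z-score lies at least 5 MADs above the screen median; here such calls match roughly 38% of GMNN control or more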

| gene | PubChem SID | G2 robust z-score | G2 cells, % of GMNN control | activity call |
| --- | --- | --- | --- | --- |
| PBK | SID160744568 | 3.07 | 24.5 | inactive |
| PBK | SID160744569 | -0.659 | -1.67 | inactive |
| PBK | SID160744570 | 3.31 | 26.2 | inactive |
| RRAD | SID160716217 | -0.733 | -2.19 | inactive |
| RRAD | SID160716218 | 2.83 | 22.9 | inactive |
| RRAD | SID160716219 | -0.46 | -0.267 | inactive |
| ECPAS | SID160736179 | -1.42 | -7 | inactive |
| ECPAS | SID160736180 | 0.0701 | 3.46 | inactive |
| ECPAS | SID160736181 | 0.125 | 3.85 | inactive |
| PRSS53 | SID160764146 | -0.0424 | 2.67 | inactive |
| PRSS53 | SID160764148 | -0.784 | -2.55 | inactive |
| PRSS53 | SID160764149 | -1.27 | -5.96 | inactive |
| TMEM126B | SID160744553 | 0.139 | 3.94 | inactive |
| TMEM126B | SID160744554 | 0.219 | 4.51 | inactive |
| TMEM126B | SID160744555 | -0.883 | -3.24 | inactive |
| GCK | SID160769965 | -0.523 | -0.711 | inactive |
| GCK | SID160769976 | 0.535 | 6.73 | inactive |
| GCK | SID160769987 | -0.759 | -2.37 | inactive |
| PHF20L1 | SID160740068 | 3.39 | 26.8 | inactive |
| PHF20L1 | SID160740069 | -1.53 | -7.79 | inactive |
| PHF20L1 | SID160740070 | -0.349 | 0.515 | inactive |
| B3GNT2 | SID160729033 | -0.737 | -2.22 | inactive |
| B3GNT2 | SID160729034 | -1.13 | -4.98 | inactive |
| B3GNT2 | SID160729035 | 1.67 | 14.7 | inactive |
| FKBP9 | SID160730635 | 1.75 | 15.3 | inactive |
| FKBP9 | SID160730644 | 1.33 | 12.3 | inactive |
| FKBP9 | SID160730655 | 5.4 | 41 | active |
| TPSG1 | SID160724334 | -0.208 | 1.51 | inactive |
| TPSG1 | SID160724335 | -1.16 | -5.23 | inactive |
| TPSG1 | SID160730904 | 0.2 | 4.37 | inactive |
